# Results are given in words; binding and its absence hold for the method and conditions named. In cells and extracts the contact can be indirect. A yes stands for co-enrichment or nearness to the bait. Other partners may have been found.
# By UniProt entry, the sequences of proteins in these tests, tags left out. Residues count along the entry.
# UniProt P20029, residues 20-655: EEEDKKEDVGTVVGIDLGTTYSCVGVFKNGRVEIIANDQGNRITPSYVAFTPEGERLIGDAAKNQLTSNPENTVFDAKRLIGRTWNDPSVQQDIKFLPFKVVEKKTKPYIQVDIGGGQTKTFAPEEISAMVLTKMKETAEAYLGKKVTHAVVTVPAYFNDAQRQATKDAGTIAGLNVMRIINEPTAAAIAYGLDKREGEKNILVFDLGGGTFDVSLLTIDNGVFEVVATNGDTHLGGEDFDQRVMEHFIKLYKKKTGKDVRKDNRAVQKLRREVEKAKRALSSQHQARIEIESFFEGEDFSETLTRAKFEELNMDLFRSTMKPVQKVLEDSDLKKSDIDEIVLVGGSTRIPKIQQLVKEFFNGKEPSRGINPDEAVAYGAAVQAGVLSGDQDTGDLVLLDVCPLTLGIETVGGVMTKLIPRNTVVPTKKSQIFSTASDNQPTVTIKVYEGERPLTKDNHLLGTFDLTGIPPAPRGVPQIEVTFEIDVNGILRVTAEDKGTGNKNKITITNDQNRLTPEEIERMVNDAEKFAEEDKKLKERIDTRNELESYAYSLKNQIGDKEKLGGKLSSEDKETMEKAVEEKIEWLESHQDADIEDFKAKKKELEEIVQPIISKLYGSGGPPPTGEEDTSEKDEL
# UniProt P08113, residues 22-802: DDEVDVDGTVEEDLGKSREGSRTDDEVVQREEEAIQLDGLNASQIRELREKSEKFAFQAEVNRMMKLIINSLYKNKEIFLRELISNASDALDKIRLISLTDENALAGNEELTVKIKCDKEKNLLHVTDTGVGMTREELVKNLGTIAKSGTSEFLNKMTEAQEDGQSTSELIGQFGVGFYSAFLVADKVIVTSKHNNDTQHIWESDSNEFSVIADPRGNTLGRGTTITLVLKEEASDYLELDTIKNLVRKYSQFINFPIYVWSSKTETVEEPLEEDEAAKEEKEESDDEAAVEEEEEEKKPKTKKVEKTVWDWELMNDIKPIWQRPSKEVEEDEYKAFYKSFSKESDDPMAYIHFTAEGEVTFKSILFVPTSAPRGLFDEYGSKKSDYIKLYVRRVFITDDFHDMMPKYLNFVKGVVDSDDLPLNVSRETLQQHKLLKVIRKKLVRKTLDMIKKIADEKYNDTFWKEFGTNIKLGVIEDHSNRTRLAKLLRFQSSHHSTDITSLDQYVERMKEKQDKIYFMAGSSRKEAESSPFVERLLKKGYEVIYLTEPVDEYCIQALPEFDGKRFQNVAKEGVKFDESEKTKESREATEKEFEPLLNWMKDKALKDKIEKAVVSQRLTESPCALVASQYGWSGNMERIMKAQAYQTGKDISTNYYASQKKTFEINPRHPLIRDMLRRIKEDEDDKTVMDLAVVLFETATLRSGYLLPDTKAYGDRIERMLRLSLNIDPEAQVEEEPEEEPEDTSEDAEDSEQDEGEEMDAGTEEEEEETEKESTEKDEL
# B1: GRP170 (protein, UniProt Q9JKR6 33-999)
# chain: LAVMSVDLGSESMKVAIVKPGVPMEIVLNKESRRKTPVTVTLKENERFLGDSAAGMAIKNPKATLRYFQHLLGKQADNPHVALYRSRFPEHELIVDPQRQTVRFQISPQLQFSPEEVLGMVLNYSRSLAEDFAEQPIKDAVITVPAFFNQAERRAVLQAARMAGLKVLQLINDNTATALSYGVFRRKDINSTAQNVMFYDMGSGSTVCTIVTYQTVKTKEAGMQPQLQIRGVGFDRTLGGLEMELRLREHLAKLFNEQRKGQKAKDVRENPRAMAKLLREANRLKTVLSANADHMAQIEGLMDDVDFKAKVTRVEFEELCADLFDRVPGPVQQALQSAEMSLDQIEQVILVGGATRVPKVQEVLLKAVGKEELGKNINADEAAAMGAVYQAAALSKAFKVKPFVVRDAVIYPILVEFTREVEEEPGLRSLKHNKRVLFSRMGPYPQRKVITFNRYSHDFNFHINYGDLGFLGPEDLRVFGSQNLTTVKLKGVGESFKKYPDYESKGIKAHFNLDESGVLSLDRVESVFETLVEDSPEEESTLTKLGNTISSLFGGGTSSDAKENGTDAVQEEEESPAEGSKDEPAEQGELKEEAEPPAEETSQPPPSEPKGDAAREGEKPDEKESGDKPEAQKPNEKGQAGPEGAAPAPEEDKKPKPARKQKMVEEIGVELAVLDLPDLPEDELARSVQKLEELTLRDLEKQEREKAANSLEAFIFETQDKLYQPEYQEVSTEEQREEISGKLSATSTWLEDEGFGATTVMLKDKLAELRKLCQGLFFRVEERRKWPERLSALDNLLNHSSIFLKGARLIPEMDQVFTEVEMTTLEKVINDTWAWKNATLAEQAKLPATEKPVLLSKDIEAKMMALDREVQYLLNKAKFTKPRPRPKDKNGTRAEPPLNASAGDQEEKVIPPAGQTEEAKPILEPDKEETGTEPADSEPLELGGPGAGPEQEEQSAGQKRPSKNDEL
# B2: P58^IPK (protein, UniProt Q91YW3 32-504)
# chain: GVNADVEKHLELGKKLLAAGQLADALSQFHAAVDGDPDNYIAYYRRATVFLAMGKSKAALPDLTKVIALKMDFTAARLQRGHLLLKQGKLDEAEDDFKKVLKSNPSEQEEKEAESQLVKADEMQRLRSQALDAFDGADYTAAITFLDKILEVCVWDAELRELRAECFIKEGEPRKAISDLKAASKLKSDNTEAFYKISTLYYQLGDHELSLSEVRECLKLDQDHKRCFAHYKQVKKLNKLIESAEELIRDGRYTDATSKYESVMKTEPSVAEYTVRSKERICHCFSKDEKPVEAIRICSEVLQMEPDNVNALKDRAEAYLIEEMYDEAIQDYEAAQEHNENDQQIREGLEKAQRLLKQSQKRDYYKILGVKRNAKKQEIIKAYRKLALQWHPDNFQNEEEKKKAEKKFIDIAAAKEVLSDPEMRKKFDDGEDPLDAESQQGGGGNPFHRSWNSWQGFNPFSSGGPFRFKFHFN
# B3: apolipoprotein H (protein, UniProt Q01339 20-345)
# chain: GRICPKPDDLPFATVVPLKTSYDPGEQIVYSCKPGYVSRGGMRRFTCPLTGMWPINTLRCVPRVCPFAGILENGIVRYTSFEYPKNISFACNPGFFLNGTSSSKCTEEGKWSPDIPACARITCPPPPVPKFALLKDYRPSAGNNSLYQDTVVFKCLPHFAMIGNDTVMCTEQGNWTRLPECLEVKCPFPPRPENGYVNYPAKPVLLYKDKATFGCHETYKLDGPEEAECTKTGTWSFLPTCRESCKLPVKKATVLYQGMRVKIQEQFKNGMMHGDKIHFYCKNKEKKCSYTVEAHCRDGTIEIPSCFKEHSSLAFWKTDASELTPC
# B4: ceruloplasmin (protein, UniProt Q61147 20-1061)
# chain: RDKHYFIGITEAVWDYASGTEEKKLISVDTEQSNFYLQNGPDRIGRKYKKALYFEYTDGTFSKTIDKPAWLGFLGPVIKAEVEDKVYVHLKNLASRIYTFHAHGVTYTKEYEGAVYPDNTTDFQRADDKVLPGQQYVYVLHANEPSPGEGDSNCVTRIYHSHVDAPKDIASGLIGPLILCKKGSLYKEKEKNIDQEFVLMFSVVDENLSWYLEDNIKTFCSEPEKVDKDNEDFQESNRMYSINGYTFGSLPGLSMCAADRVKWYLFGMGNEVDVHSAFFHGQALTSRNYQTDIINLFPATLIDAYMVAQNPGVWMLSCQNLNHLKAGLQAFFQVRDCNKPSPEDNIQDRHVRHYYIAAEEVIWNYAPSGTDIFTGENLTALESDSRVFFEQGATRIGGSYKKMAYREYTDGSFTNRKQRGPDEEHLGILGPVIWAEVGDTIKVTFHNKGQHPLSIQPMGVSFTAENEGTYYGPPGRSSQQAASHVAPKETFTYEWTVPKEMGPTYADPVCLSKMYYSGVDPTKDIFTGLIGPMKICKKGSLLADGRQKDVDKEFYLFPTVFDENESLLLDDNIRMFTTAPDQVDKEDEDFQESNKMHSMNGFMYGNQPGLNMCLGESIVWYLFSAGNEADVHGIYFSGNTYLSKGERRDTANLFPHKSLTLLMNPDTKGTFDVECLTTDHYTGGMKQKYTVNQCQRQFEDFTVYLGERTYYVAAVEVEWDYSPSRAWEKELHHLQEQNVSNVFLDKEEFFIGSKYKKVVYRQFTDSSFREQVKRRAEDEHLGILGPPIHANVGDKVKVVFKNMATRPYSIHAHGVKTESSTVVPTLPGEVRTYTWQIPERSGAGREDSACIPWAYYSTVDRVKDLYSGLIGPLIVCRKSYVKVFSPKKKMEFFLLFLVFDENESWYLDDNIKTYSEHPEKVNKDNEEFLESNKMHAINGKMFGNLQGLTMHVKDEVNWYVMGMGNEIDLHTVHFHGHSFQYKHRGVYSSDVFDLFPGTYQTLEMFPQTPGTWLLHCHVTDHVHAGMATTYTVLPVEQETKSG
# Target: BiP-FLAG (BiP/GRP78 with a 3xFLAG tag inserted just upstream of the KDEL signal) (mouse) (UniProt P20029)
# Experiment: affinity purification with mass spectrometry
row,Molecule,binding
1,EGF receptor (from UniProt Q01279 25-1210),binds
2,Grp94 (from UniProt P08113 22-802),binds
3,B1,binds
4,B2,binds
5,B3,binds
6,B4,binds
